Experiment: Lubricity test, glass-on stainless steel

## CCCCCCCCCCCCCCCCCCCCCC(=O)O [Behenic acid, behenic acid]
Drag force (sample)/drag force (reference)
  Rel COF: 1.000
Samples 100% or as indicated, references 0.1% by weight in water
  Drag force (average): 28.0 g

Source: patent publication US6806240B1, “Conveyor lubricant, passivation of a thermoplastic container to stress cracking, and thermoplastics stress crack inhibitor” (Ecolab Inc., priority 2002, dated 2004)
